This passage reports binding results from patent US20130017251A1 (J DAVID GLADSTONE INSTITUTES, published 2013).

Sequences of proteins named here, by UniProt entry; tags and fusion partners are left off. Residues count along the entry.
UniProt P02649, residues 19-317: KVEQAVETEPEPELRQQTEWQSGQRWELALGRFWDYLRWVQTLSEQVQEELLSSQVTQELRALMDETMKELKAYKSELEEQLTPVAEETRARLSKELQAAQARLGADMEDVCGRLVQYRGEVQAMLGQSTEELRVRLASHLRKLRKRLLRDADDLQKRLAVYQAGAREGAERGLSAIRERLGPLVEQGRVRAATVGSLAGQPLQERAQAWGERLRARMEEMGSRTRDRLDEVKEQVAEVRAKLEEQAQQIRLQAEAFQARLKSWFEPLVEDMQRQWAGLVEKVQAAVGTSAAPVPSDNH

For experiment [1], the target named is apoE in human brain sections (AD cases and controls) (human) (UniProt P02649). The experiment in a line: immunofluorescence staining of human brain sections.
Experiment [2] has the same target. The experiment in a line: double immunofluorescence staining of human AD brain sections.

These are yes or no findings as the source states them, for the method shown. Some results given as binding are weak or reduced against the parent protein; the word gives no strength.

B1: apoE-specific monoclonal antibody 3H1 (antibody, V domains shown)
VH: EVQLVESGGGLVKPGGSLKLSCAASGFTFSSYAMSWVRQTPEKRLEWVATISSGGSYTYYPDSVKGRFTISRDNAKNTLYLQMSSLRSEDTAMYYCARQFYYYGGSYDYFDYWGQGTTLTVS
VL: DIVLTQSPATLSVTPGDSVSLACRASQSISNNLHWYQQKSHESPRLLIKYAYQSISGIPSRFSGSGSGTDFTLSINSVETEDFGMYFCQQSNSWPLTFGVGTKLEIKR
notes: Mouse monoclonal IgG (detected with anti-mouse IgG; used as purified 3H1 IgG); also called 3H1 IgG; purified 3H1 IgG
Take B1: the binding entry in experiment [1] and in experiment [2] was “binds” in each case.
